Patent US20230203114A1

Target: HLA-A*02:01 (human)
Test: UV-ligand exchange + anti-b2m ELISA; peptide exchange yield grade (+ >=10%, ++ >=20%, +++ >=50%, ++++ >=75%)

binding | Binder
binds | ALDSSNSMQTI [… (SEQ ID NO: 52)]
binds | QLFSEIHNL [… (SEQ ID NO: 191)]
binds | VLDEDEPRFL [… (SEQ ID NO: 60)]
binds | KLNTETFGV [… (SEQ ID NO: 32)]
binds | KLLKLFQGV [… (SEQ ID NO: 61)]
binds | YLLDYPNNLL [… (SEQ ID NO: 72)]
binds | SILDDSFKL [… (SEQ ID NO: 42)]
binds | FLVDGPRVQL [… (SEQ ID NO: 188)]
binds | WLFDDGGLTL [… (SEQ ID NO: 5)]
binds | TLQEVVTGV [… (SEQ ID NO: 183)]
binds | ALAELLHGA [… (SEQ ID NO: 45)]
binds | LLTDNVVKL [… (SEQ ID NO: 59)]
binds | SLLDENNVSSYL [… (SEQ ID NO: 184)]
binds | KMSEKILLL [… (SEQ ID NO: 186)]
binds | YLKDGDVML [… (SEQ ID NO: 20)]
binds | ILDDSFKLL [… (SEQ ID NO: 41)]
binds | GLDDGPDFL [… (SEQ ID NO: 66)]
binds | FLLGSEIKL [… (SEQ ID NO: 53)]
binds | SLESKLTSV [… (SEQ ID NO: 44)]
binds | ALSNVIHKV [… (SEQ ID NO: 40)]
binds | GLDDRYSLV [… (SEQ ID NO: 46)]
binds | EMIENIQSV [… (SEQ ID NO: 75)]
binds | ALLNGEYLLAA [… (SEQ ID NO: 54)]

binding | Binder
binds | ALLPRYFFL [… (SEQ ID NO: 2)]
binds | YLTRHLAVL [… (SEQ ID NO: 7)]
binds | GLLESPSIFNFTA [… (SEQ ID NO: 36)]
binds | SLAPTPVSA [… (SEQ ID NO: 38)]
binds | KTLGKLWRL [… (SEQ ID NO: 64)]
binds | YLFDIAVSM [… (SEQ ID NO: 73)]
binds | KLYERCEVV [… (SEQ ID NO: 47)]
binds | AMAEMVLQV [… (SEQ ID NO: 190)]
binds | SILQFVHMV [… (SEQ ID NO: 68)]
binds | AMADKMDMSL [… (SEQ ID NO: 58)]
binds | RLYTKLLNEA [… (SEQ ID NO: 19)]
binds | NLLEKENYL [… (SEQ ID NO: 57)]
binds | FLDANGHFV [… (SEQ ID NO: 23)]
binds | QMLDVAIRV [… (SEQ ID NO: 29)]
binds | GMLNEAEGKAIKL [… (SEQ ID NO: 69)]
binds | YLIGEKQHYL [… (SEQ ID NO: 76)]
binds | VLFTDEGVPKFL [… (SEQ ID NO: 56)]
binds | YLMGFLHAV [… (SEQ ID NO: 74)]
binds | GLSSAYGGL [… (SEQ ID NO: 30)]
binds | VLIDHRWVL [… (SEQ ID NO: 21)]
binds | LLADEDSSYL [… (SEQ ID NO: 27)]
binds | LLYGKYVSV [… (SEQ ID NO: 31)]

Further lines, the binder ahead of its results:

Binder | binding
GLHNVVYGI [… (SEQ ID NO: 187)] | binds
RTLDKVLEV [… (SEQ ID NO: 176)] | binds
ALTEIQEFI [… (SEQ ID NO: 28)] | binds
RLAELTVDEFL [… (SEQ ID NO: 4)] | binds
RLIPDTLYSV [… (SEQ ID NO: 3)] | binds
VLYTGVVRV [… (SEQ ID NO: 185)] | binds
GLFAGLGGAGA [… (SEQ ID NO: 37)] | binds
FLDASDPAL [… (SEQ ID NO: 48)] | binds
KLFSILSTV [… (SEQ ID NO: 63)] | binds
ALWEKNTHL [… (SEQ ID NO: 33)] | binds
ILLEKSVSV [… (SEQ ID NO: 34)] | binds
TLDAAQPRV [… (SEQ ID NO: 43)] | binds
RLWTEIPTAI [… (SEQ ID NO: 71)] | binds
FLSSLKGGLL [… (SEQ ID NO: 18)] | binds
TLMAEMHVV [… (SEQ ID NO: 50)] | binds
GLIDEVMVL [… (SEQ ID NO: 22)] | binds

Binder | binding
VLDGVLMEL [… (SEQ ID NO: 24)] | binds
KLLDLTVRI [… (SEQ ID NO: 35)] | binds
GLASKENFSNVSL [… (SEQ ID NO: 26)] | binds
NLFDLGGQYLRV [… (SEQ ID NO: 181)] | binds
ALAAARVEL [… (SEQ ID NO: 17)] | binds
QVWEIQHTV [… (SEQ ID NO: 51)] | binds
TLLGGKEAQALGV [… (SEQ ID NO: 175)] | binds
FLAELPGSLSL [… (SEQ ID NO: 6)] | binds
YLAPENGYL [… (SEQ ID NO: 62)] | binds
ALLQGAIESV [… (SEQ ID NO: 177)] | binds
MISELEVRL [… (SEQ ID NO: 70)] | binds
AISEVIGKITA [… (SEQ ID NO: 189)] | binds
SLNKWIFTV [… (SEQ ID NO: 182)] | binds
YLFREPATI [… (SEQ ID NO: 178)] | binds
SLNDLEKDVMLL [… (SEQ ID NO: 67)] | binds

These are yes or no findings as the source states them, for the method shown. Binding can be weak; no strength is given.
